The values below come from article PMC8372784.

Chains of the proteins cited; added tags and fusions are not shown.
UniProt Q9Y2J4: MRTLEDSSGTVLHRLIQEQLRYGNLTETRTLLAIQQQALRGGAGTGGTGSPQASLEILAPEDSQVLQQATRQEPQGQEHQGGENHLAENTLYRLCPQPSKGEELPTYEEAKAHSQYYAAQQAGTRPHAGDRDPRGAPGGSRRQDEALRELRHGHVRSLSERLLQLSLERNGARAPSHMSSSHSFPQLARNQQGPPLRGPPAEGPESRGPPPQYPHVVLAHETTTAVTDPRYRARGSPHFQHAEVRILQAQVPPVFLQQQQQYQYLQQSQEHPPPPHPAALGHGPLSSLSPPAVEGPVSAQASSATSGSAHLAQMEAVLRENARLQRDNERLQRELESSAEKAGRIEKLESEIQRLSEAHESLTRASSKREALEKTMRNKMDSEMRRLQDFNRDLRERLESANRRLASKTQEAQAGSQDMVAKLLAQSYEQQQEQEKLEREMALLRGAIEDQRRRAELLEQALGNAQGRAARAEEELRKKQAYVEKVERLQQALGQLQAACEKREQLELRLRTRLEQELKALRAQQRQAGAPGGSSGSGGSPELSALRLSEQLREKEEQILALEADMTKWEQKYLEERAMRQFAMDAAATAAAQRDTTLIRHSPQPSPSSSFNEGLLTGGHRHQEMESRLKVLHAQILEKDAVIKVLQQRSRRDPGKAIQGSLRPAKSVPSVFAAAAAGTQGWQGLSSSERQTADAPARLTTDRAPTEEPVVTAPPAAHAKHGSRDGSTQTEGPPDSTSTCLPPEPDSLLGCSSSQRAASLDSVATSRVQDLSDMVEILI

No constants are given. Whether binding was seen depends on the method and setting. Binding seen in cells or lysates may run through a third protein. Some entries that bind do so weakly or less than the wild type.

The target in this test is T1, LATS2 wild type, transfected (UniProt Q9NRM7).
T1 sequence: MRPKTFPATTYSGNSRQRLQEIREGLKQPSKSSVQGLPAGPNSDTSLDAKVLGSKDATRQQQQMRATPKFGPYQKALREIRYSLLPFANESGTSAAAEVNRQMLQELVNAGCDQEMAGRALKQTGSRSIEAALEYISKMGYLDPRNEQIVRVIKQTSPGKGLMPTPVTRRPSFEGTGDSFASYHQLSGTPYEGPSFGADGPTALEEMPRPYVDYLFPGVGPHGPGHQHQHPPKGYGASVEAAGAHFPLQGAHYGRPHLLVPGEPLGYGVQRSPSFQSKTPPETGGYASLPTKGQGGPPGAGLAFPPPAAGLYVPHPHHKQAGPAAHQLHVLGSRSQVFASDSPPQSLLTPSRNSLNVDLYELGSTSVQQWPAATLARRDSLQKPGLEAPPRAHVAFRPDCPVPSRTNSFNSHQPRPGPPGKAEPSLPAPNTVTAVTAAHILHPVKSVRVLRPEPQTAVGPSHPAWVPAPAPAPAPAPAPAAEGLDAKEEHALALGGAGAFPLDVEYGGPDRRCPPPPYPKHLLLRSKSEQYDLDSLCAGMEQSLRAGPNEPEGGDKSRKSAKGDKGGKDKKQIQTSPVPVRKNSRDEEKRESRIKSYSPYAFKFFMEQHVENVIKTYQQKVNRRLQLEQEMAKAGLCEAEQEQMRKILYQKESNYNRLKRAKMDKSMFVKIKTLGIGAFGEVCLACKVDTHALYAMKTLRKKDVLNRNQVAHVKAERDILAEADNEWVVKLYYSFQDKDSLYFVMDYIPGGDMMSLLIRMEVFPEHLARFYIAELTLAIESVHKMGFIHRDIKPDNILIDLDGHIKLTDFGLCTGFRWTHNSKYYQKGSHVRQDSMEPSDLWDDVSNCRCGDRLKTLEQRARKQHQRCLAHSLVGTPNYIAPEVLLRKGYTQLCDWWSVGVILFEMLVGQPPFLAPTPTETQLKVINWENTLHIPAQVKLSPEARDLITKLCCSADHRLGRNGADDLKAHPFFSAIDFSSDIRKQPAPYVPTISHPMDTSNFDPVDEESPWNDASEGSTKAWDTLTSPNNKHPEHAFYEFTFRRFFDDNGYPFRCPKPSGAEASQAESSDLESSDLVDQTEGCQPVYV
The test is described as follows: pull-down; 293T cells stably transduced with shGFP or shWWP1, rescue with WT or C890A WWP1, transfected with the indicated DNAs; lysates pulled down with streptavidin agarose beads (SFB tag) (Fig 5A).

With “AMOTL2 wild type, transfected (from UniProt Q9Y2J4 1-779)”, the binding entry is “binds”.
